Experimental data published in PubChem BioAssay AID2551 (National Center for Advancing Translational Sciences (NCATS), 2010).
The campaign covered roughly 310,000 compounds. About 17,000 (5.5%) were called active. The inconclusive results got no clear call from the source; some entries with a clear call stand among them for comparison. Calls come from the whole dose curve; as a rule, active = well fitted inhibition curve with a large enough effect; inconclusive = small, poorly fitted or top-dose-only effect, or effect the other way; inactive = no such curve, though single readings can be large or run the other way. Where the call is inconclusive, the potency comes from a doubtful curve fit.

By UniProt entry, the sequences of proteins in these tests, tags left out. Where a name states a change or a piece, a line headed by the entry shows the natural chain unless it says otherwise.
UniProt P51450: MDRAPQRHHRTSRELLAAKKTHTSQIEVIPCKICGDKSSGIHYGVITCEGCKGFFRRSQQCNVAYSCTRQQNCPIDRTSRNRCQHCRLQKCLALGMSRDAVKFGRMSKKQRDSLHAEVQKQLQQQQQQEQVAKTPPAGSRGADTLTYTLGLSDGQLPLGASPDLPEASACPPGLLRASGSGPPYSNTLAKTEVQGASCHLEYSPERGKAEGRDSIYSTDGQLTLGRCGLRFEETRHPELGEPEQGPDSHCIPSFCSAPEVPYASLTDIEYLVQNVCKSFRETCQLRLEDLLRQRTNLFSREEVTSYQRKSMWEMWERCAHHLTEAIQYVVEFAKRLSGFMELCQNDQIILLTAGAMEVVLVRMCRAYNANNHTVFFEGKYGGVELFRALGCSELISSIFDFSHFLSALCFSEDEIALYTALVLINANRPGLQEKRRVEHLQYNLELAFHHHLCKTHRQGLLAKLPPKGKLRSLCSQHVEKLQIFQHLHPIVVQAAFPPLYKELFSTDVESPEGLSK

Target: Nuclear receptor ROR-gamma (Mus musculus) (UniProt P51450)
Test: qHTS for inhibitors of ROR gamma transcriptional activity; note: nearly all actives have a fitted effect of over 60% in size
Conditions: Drosophila S2 Gal4-RORgamma UAS-luciferase reporter, 20 h; activity change, negative = inhibition: at 53.6 µM (top of the series)
Outline: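 Luminescence from a UAS-regulated Photinus luciferase reporter in stably transfected Drosophila Schneider cells is measured; decreased signal marks ROR gamma inhibition. Fusion expression is induced by 700 uM copper sulfate for 20 hr.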
% is set by controls: 0 for no effect and ±100 for the full control effect; potency is the fitted concentration of half-maximal effect.

Activity change, negative = inhibition, inactive:
Cn1nccc1C(=O)N1CCCC(N2CCN(c3cccc(C(F)(F)F)c3)CC2)C1 (stereo unspecified) 28.9%
Cc1ccc(Cl)cc1NS(=O)(=O)Cc1ccccc1 -1.99%
O=C(O)c1cc(N/N=C/c2ccc(-c3ccccc3)cc2)ccc1Cl 0.32%
O=C(O)c1sccc1Oc1ccc(F)cc1[N+](=O)[O-] -33.4%
O=C(CSc1ccccc1)Nc1ccccc1C(=O)O 23.5%
Cn1c(=O)cc(OCC(=O)NCc2cccs2)c2ccccc21 -3.74%
C[C@@H]1C(=O)OC2C[C@@]34[C@H]5C[C@@H](C(C)(C)C)[C@@]36C(O)C(=O)O[C@H]6O[C@@]4(C(=O)O5)[C@]21O (stereo partly specified) -21.1%
CCN1C(=O)[C@H]2[C@H]3[C@H](O)[C@H](O)C/C(=N/OC[C@@H](O)COCc4ccco4)[C@H]3CC[C@@H]2C1=O 2% [at 10 µM]
c1ccc(CCCN2CCN(c3ccccn3)CC2)cc1 -9.13%
O=C(c1ccc(Cl)cc1[N+](=O)[O-])N1CCOCC1 1.13%
NS(=O)(=O)c1ccc(CNS(=O)(=O)c2cccc3nonc23)cc1 3.1%
COc1ccc2c(c1)c(CC(=O)OCC(=O)N(C)C)c(C)n2C(=O)c1ccc(Cl)cc1 -7.85%
CCn1nc(C)cc1C(=O)Sc1ccc(C)cc1 -17.3%
Cc1cccc(N2C(=O)c3cccc4c(N5CCCCC5)c([N+](=O)[O-])cc(c34)C2=O)c1C -12.9%
O=C(COC(=O)c1cccs1)Nc1nc(-c2ccccc2)cs1 8.19%
COC(=O)[C@@]1(Cc2ccccc2)[C@H]2c3cc(C(=O)N4CCCC4)n(CCc4ccccn4)c3C[C@H]2CN1C(=O)c1ccccc1 22.9%
O=C1CCC(C(=O)NCc2cccnc2)N1 (stereo unspecified) -19.6%
Cc1cnc(C(=O)NCCc2ccc(Cl)cc2)cn1 15.1%
NC(=O)C1CCN(C(=O)C2CC(=O)N(c3ccc(F)cc3)C2)CC1 (stereo unspecified) -34%
O=C(CSC1=NCCS1)N1CCN(c2ccccc2)CC1 -10.7%
Cc1c(NC2(c3nnnn3-c3ccc(Br)cc3)CCCCC2)c(=O)n(-c2ccccc2)n1C -42.5%

Potency, inconclusive:
CCN1C(=O)/C(=C/N(C(C)=O)c2ccccc2)N(c2ccccc2)C1=S 35.5 µM [inhibitor, single point]
S=C(c1ccc(-c2ccc(Cl)cc2Cl)o1)N1CCCCC1 17.8 µM [inhibitor, single point]
Cc1cccc2sc(N(CCCN(C)C)C(=O)c3ccc(Cl)s3)nc12 12.6 µM [inhibitor, partial curve]
S=c1[nH]nc(COc2ccccc2)n1/N=C/C=C/c1ccccc1 4.47 µM [inhibitor, full curve, poor fit]
O=C(/C(=N\Nc1ccc([N+](=O)[O-])cc1)Sc1nnnn1-c1ccccc1)c1ccccc1 0.794 µM [inhibitor, single point]
CC(C)C(=O)Nc1ccc2nn(-c3ccc(F)cc3)nc2c1 14.1 µM [inhibitor, single point]
O=C(Nc1cccc(Br)c1)c1cc(S(=O)(=O)N2CCOCC2)cs1 17.8 µM [activator, partial curve]
O=C(NCc1ccco1)c1ccc(Cn2c(=S)[nH]c3ccccc3c2=O)cc1 22.4 µM [inhibitor, single point]
Cc1nccc(-c2cccc(N/N=C(\C#N)C(=O)c3ccccc3)c2)n1 15.8 µM [activator, single point]
COc1cccc(C2CC(c3c(Cl)cccc3Cl)n3nc(N)nc3N2)c1 (stereo unspecified) 5.62 µM [inhibitor, single point]
Oc1ccc(Cl)cc1CNc1ccc(Br)cn1 15.8 µM [inhibitor, single point]
CCOc1ccc(Nc2ncnc3c2cnn3Cc2ccccc2)cc1 14.1 µM [activator, single point]
COC(=O)c1sccc1NC(=O)Nc1ccc(C)cc1C 12.6 µM [activator, single point]
O=C(CSc1nnc(Cc2cccs2)n1CCc1ccccc1)N1CCCc2ccccc21 35.5 µM [inhibitor, single point]
FC(F)Oc1ccc(C2N=C(c3ccccc3)NO2)cc1 (stereo unspecified) 0.447 µM [activator, full curve, poor fit]
O=C1c2ccc(Oc3ccc([N+](=O)[O-])cc3)cc2C(=O)N1CCCO 35.5 µM [activator, single point]
O=C(c1cccc2c1C(=O)N(Cc1cccnc1)C2)N1CCN(c2ccccc2)CC1 5.01 µM [inhibitor, partial curve, poor fit]
COc1ccc(OC)c(-c2csc(NC(=O)Cc3cc(OC)c(OC)c(OC)c3)n2)c1 14.1 µM [activator, partial curve]
O=C(c1ccc(NS(=O)(=O)c2cccs2)cc1)N1CCCCC1 0.708 µM [activator, full curve, poor fit]
Cc1ccccc1-c1ccc2ncnc(N3CCN(C)CC3)c2c1 10 µM [activator, single point]
COc1ccc(-c2noc(CCC(=O)Nc3ccc4c(c3)OCCO4)n2)cc1 0.501 µM [inhibitor, full curve, poor fit]
O=C(Nc1cccc(F)c1)Nc1ccc2c(c1)CCC2 0.708 µM [activator, full curve]
Cc1ccn2c(/C=N/OCc3ccc(F)cc3)c(-c3ccc(Cl)cc3)nc2c1 2.24 µM [inhibitor, full curve]
CCOc1cc(/C=C2\COc3ccccc3C2=O)cc(Br)c1OCC(=O)N(C)C 20 µM [inhibitor, single point]
CCOC(=O)C1C(=O)CC(O)(c2ccccc2)CC1c1ccccc1 (stereo unspecified) 20 µM [activator, partial curve, poor fit]
CC(=O)N1N=C(c2ccncc2)CC1c1ccccc1O (stereo unspecified) 0.224 µM [inhibitor, full curve, poor fit]
COc1cccc(/C=N/Nc2ncnc3c2ncn3Cc2ccccc2)c1O 35.5 µM [inhibitor, single point]
O=C(CSc1nc2nc[nH]c2c(=O)[nH]1)NC1CCCCC1 35.5 µM [inhibitor, single point]
N#Cc1nc(Cc2ccccc2)oc1N1CCC(Cc2ccccc2)CC1 10 µM [activator, partial curve]
O=C(COc1ccc(Br)cc1)NNC(=S)NC(=O)c1ccccc1[N+](=O)[O-] 20 µM [inhibitor, single point]
COc1ccc(CNC(=O)c2ccc(Br)o2)cc1 12.6 µM [activator, partial curve]
CN(c1ccccc1)c1ccc(/C=N/NC(=O)CC#N)cc1 35.5 µM [inhibitor, single point]
CN1C(=O)c2cccc3c(N(C)C)ccc(c23)C1=O 28.2 µM [activator, single point]
Cc1cccc(Nc2nnc(-c3ccc(C(=O)N4C[C@H]5C[C@H](C4)c4cccc(=O)n4C5)cc3)c3ccccc23)c1 1.41 µM [activator, partial curve, poor fit]
O=C(CC(SCCO)c1ccc2c(c1)OCO2)c1ccco1 (stereo unspecified) 35.5 µM [inhibitor, single point]
C=CCn1c(-c2ccccc2)n[nH]c1=S 31.6 µM [activator, single point]
Brc1cccc(-c2nc(-c3ccncc3)no2)c1 2.82 µM [activator, partial curve]

Potency, active:
Fc1ccc(C2c3cccn3CCN2C(=S)Nc2cccc(Br)c2)cc1 (stereo unspecified) 8.91 µM
COc1ccc(C(=O)CSc2nc(-c3ccccn3)nc(C)c2Cl)cc1 2.82 µM
Clc1cccc(Cl)c1Cn1cnc(=NCc2ccco2)c2[nH]cnc21 17.8 µM
Oc1ccc(/C=C/c2ccc3ccccc3n2)cc1 7.94 µM
COc1ccc(-c2nc(-c3ccncc3)no2)c(OC)c1 7.94 µM
Cc1ccc(-c2cn3nc(C)c(C)nc3n2)cc1 7.94 µM
COc1cc(OC)cc(C(=O)Oc2c(CN3CCOCC3)cc(Cl)c3cccnc23)c1 4.47 µM
CCOC(=O)N1CCN(C(=S)NC(=O)c2nn(C)cc2Br)CC1 17.8 µM
O=c1c2ccc(Cl)cc2[nH]c(=S)n1CCC1=CCCCC1 1.26 µM
COc1cc(/C=C2\CCc3c2nc2ccccc2c3C(=O)O)cc(OC)c1OC 10 µM
COc1cccc(/C=N/NC(=O)CNC(=O)c2ccco2)c1O 1.58 µM
CCS(=O)(=O)c1ncc(Cl)c(C(=O)Nc2ccc(C)cc2)n1 5.01 µM
CC(=O)Nc1ccc(C(=O)CCl)cc1 4.47 µM
c1ccc(-c2noc(-c3ccc4c(c3)OCO4)n2)nc1 3.16 µM
Cc1cccc(-n2c(C)cc(/C=N/NC(=O)c3cccc([N+](=O)[O-])c3C)c2C)c1 7.94 µM
CCN(CC)c1ccc(/C=N/NC(=O)CCC(=O)NCc2ccccc2)c(O)c1 3.16 µM
CC(C)(C)n1ncc2c(=O)n(CC(=O)NCc3ccccc3)cnc21 10 µM

Quoted at random: 6 entries already listed.
Potency, active:
Cc1cccc(-n2c(C)cc(/C=N/NC(=O)c3cccc([N+](=O)[O-])c3C)c2C)c1 7.94 µM
CCN(CC)c1ccc(/C=N/NC(=O)CCC(=O)NCc2ccccc2)c(O)c1 3.16 µM
c1ccc(-c2noc(-c3ccc4c(c3)OCO4)n2)nc1 3.16 µM
CC(=O)Nc1ccc(C(=O)CCl)cc1 4.47 µM
CCOC(=O)N1CCN(C(=S)NC(=O)c2nn(C)cc2Br)CC1 17.8 µM
Oc1ccc(/C=C/c2ccc3ccccc3n2)cc1 7.94 µM

Quoted from the results shown, 2 compounds:
Potency, active:
c1ccc(-c2noc(-c3ccc4c(c3)OCO4)n2)nc1 3.16 µM
Cc1cccc(-n2c(C)cc(/C=N/NC(=O)c3cccc([N+](=O)[O-])c3C)c2C)c1 7.94 µM

Following part:

Potency, inactive:
Cn1ccc2cc3c(cc21)CCN3C(=O)Nc1cccnc1
